{
  "source": "patent US9555049B2",
  "about": "“Arene ruthenium (II) derivatives containing iminophosphorane ligands and their use in cancer therapy” (Research Foundation of the City University of New York, priority 2014, dated 2017)",
  "note": "Some results were stated once for a whole list of compounds, not compound by compound.",
  "data": [
    {"test_system": "Calf Thymus DNA (CT DNA)", "assay": "Interaction with Calf Thymus DNA by circular dichroism", "format": "binding", "conditions": "37° C., pH=7.30, Tris/HCl buffer, up to molar ratio drug/DNA=0.5", "values": [
      {"substance": "[(η^6-p-cymene)Ru([{Cp—P(Ph2)═N—CH2-2-NC5H4}Fe(Cp)]-κ-N,N)Cl]Cl [Compound 4]", "CD spectra of CT DNA": "no modification of the DNA bands"},
      {"substance": "[(η^6-p-cymene)Ru{(Ph3P═N-8-C9H6N)-κ-N,N}Cl]Cl [Compound 3]", "CD spectra of CT DNA": "no modification of the DNA bands"},
      {"substance": "[(η^6-p-cymene)Ru{(Ph3P═N—CO-2-N—C5H4)-κ-N,O}Cl](PF6) [Compound 1]", "CD spectra of CT DNA": "no modification of the DNA bands"}
    ]}
  ]
}
